These are yes or no findings as the source states them, for the method shown. Some binding calls cover weakened binding; strength is not graded here. Sequences can lack the tags named with a protein.
B1: CAL1-V5, Q9VEN2 1-979 (protein)
chain: MANAVVDEETLEAMVYERSKAWSSKMADFASLEDGMEIDVAEFDNLFHGEDEDPDLDDVAKEAVEDNVPDEAKLEMGHINATSVTELTLILCANEDNEAKAEIEEILNQTVPVVEEHKRKWREAGLDRILDTFDEKQIEHHVGRWMRRHNSVYLEASPPKYLPPHHNSISDESDESMHSIDTARYIQQSRRRNAHMTNKNMTTIKMYRKHSHKRDELRAKYAYGDEQEHRHHMQAVLLRRRERERQLAYLASTPMQCVYSSGHHMRRKNLRKRRINSWMFDSASSSEEDTSFGGCDCHSCRRHYALSRSVYQSCPYGRGQREYHHRQMASRTMHTMRRQHTFDMEMDLRPRLPENECSCCNSDRLCSNVIHIANSSTEEWVVENRSNHLTQETQEKTRKQKHQPMDARKVSHQPVCSKGHEQKPLSSKATSVSKLVLSKEKYMQMFDSESSDEDNALAKKGLLCCSDKKKGMTFPTPNAAGKITHPTSSAKKAIRKEARPNGLAQIQEEGPTATNSPIESTYLPVAHMKSVSIDGSSGTSATFESPAKKAPKRGIRETSPLNGNELQQLISTIPIADEKASSLMEKVDNCIGRESFDDRNKDFMHMENSSTKTAVEKSTKQKRVSGKKSEIPKSIITNNEILEKNSTETLSEKQVAAKAKKQSVRKTGATGKPSTSRLKKSEKTKTTSSVTSTSKLEQVREEESDVSSEVLAKPKPQCSTTASILKQGGDGASNSEDDLQIALAMSKATYKEEQQKRKKTKREPSNKQPQSPAEKSMTVFNNQSVACNSTALANDTACYRVLPKRRGVKRAAAVSTTEEKTATNSSSSPTSSLEEMGSPTGGDPDCTVVTSTTGCEPPASERQEIPATIKITKRGILLHSPSAPEGASFTLTEQGLGKIIGERWARKYLKYHIGSRSFDSRHSVYYQPTPQLAAALSAPQDAQNIGNISGSSASDDDIFEQINRYGTVYSILENNSGDK
B2: His-CENP-C_(1264-1411 L1357E/M1407E) (domain or fragment, UniProt Q9VHP9 1264-1411)
chain: GPVVFSTPLRDEQEEASTKLMQWLRGVGDAPPSASMSDENASVSSANELIFCQVDGIDYAFYNTKEKAMLGYMRFKPYQKRSMKQAKVHPLKLEVQFGEFNVETLAVGEEKEVHSVLRVGDMIEIDRGTRYSIQNAIDKVSVLECIRS

Key:
[1] = molecular target: T1, GFP-LacI-CENP-C_(M1407E/L1357E) (Drosophila melanogaster), Q9VHP9; assay: LacO/LacI tethering assay in cells; settings: remark: other sources report otherwise
T1 chain: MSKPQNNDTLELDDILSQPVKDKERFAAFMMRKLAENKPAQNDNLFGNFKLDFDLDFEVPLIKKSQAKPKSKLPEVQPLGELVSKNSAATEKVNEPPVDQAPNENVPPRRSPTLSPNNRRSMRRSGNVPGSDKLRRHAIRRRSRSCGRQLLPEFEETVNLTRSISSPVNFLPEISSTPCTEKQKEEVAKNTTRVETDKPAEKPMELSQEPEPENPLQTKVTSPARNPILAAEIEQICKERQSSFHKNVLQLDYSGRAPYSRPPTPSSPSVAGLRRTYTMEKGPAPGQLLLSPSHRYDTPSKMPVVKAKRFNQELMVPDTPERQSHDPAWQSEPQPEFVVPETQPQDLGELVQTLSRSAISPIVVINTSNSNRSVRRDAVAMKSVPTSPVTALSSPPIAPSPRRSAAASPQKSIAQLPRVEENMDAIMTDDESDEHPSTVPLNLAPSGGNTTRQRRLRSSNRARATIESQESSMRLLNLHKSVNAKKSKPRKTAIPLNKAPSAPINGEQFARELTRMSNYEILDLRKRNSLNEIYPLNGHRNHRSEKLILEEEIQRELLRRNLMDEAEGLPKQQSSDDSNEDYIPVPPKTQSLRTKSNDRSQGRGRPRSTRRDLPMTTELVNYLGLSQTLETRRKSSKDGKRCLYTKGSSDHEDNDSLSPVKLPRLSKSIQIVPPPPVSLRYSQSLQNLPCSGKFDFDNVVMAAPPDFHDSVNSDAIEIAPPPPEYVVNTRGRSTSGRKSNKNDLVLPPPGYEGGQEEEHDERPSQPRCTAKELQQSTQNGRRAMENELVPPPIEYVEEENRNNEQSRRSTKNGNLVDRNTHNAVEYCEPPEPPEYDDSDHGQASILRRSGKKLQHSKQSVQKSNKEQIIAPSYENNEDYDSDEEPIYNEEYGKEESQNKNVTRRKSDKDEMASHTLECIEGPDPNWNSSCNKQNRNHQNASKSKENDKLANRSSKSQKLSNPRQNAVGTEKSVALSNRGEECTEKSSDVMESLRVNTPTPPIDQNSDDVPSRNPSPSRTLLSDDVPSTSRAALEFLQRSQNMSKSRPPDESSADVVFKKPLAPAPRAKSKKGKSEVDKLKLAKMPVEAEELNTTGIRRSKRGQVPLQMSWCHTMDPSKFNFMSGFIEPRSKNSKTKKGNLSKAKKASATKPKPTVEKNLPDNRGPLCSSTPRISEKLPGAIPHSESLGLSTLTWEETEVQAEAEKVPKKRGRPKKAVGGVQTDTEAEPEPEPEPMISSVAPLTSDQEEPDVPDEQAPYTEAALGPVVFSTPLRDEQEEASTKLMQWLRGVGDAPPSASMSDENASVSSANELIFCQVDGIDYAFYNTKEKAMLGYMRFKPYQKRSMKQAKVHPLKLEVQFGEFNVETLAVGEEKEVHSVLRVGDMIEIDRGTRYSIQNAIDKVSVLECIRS

[2] = molecular target: T2, His-CENP-C_(1264-1411 L1357E/M1407E) (Drosophila melanogaster) (UniProt Q9VHP9); assay: SEC-MALS
T2 sequence: B2 chain

| Binder | binding [1] | binding [2] |
| --- | --- | --- |
| B1 | binds |  |
| B2 |  | no binding |

From article doi:10.1101/723213
